The other results are listed elsewhere or left out.
Experiments:
Test in all cases: log2 fold change, soluble protein after heating vs DMSO (PISA); higher = thermal stabilisation; K562 lysate, 10 uM; active = over 0.2 and 3.5 SD of the protein, either way, in both replicates (recomputed)
[1] = compound: CCCS(=O)(=O)Nc1ccc(F)c(C(=O)c2c[nH]c3ncc(-c4ccc(Cl)cc4)cc23)c1F [vemurafenib]
Outline: (§1)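 Thermal stability, expressed as log-two fold change relative to solvent controls, is given from duplicates. Crude K562 extract in PBS pH 7.4 with 1 mM MgCl2, at 1 mg/mL protein, was treated with 10 μM compound for 30 min and heated in aliquots for 3 min across 48°C-58°C. After pooling, adjustment to 0.5% NP-40 at 4°C and centrifugation at 21,000xg for 90 min, supernatant protein was measured by TMTpro 16plex LC-MS/MS with channel sums equalised.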

Chains of the proteins cited; added tags and fusions are not shown. Lines headed by an entry give the natural chain unless they say otherwise; changes in a name come on top.
UniProt Q8NBT2: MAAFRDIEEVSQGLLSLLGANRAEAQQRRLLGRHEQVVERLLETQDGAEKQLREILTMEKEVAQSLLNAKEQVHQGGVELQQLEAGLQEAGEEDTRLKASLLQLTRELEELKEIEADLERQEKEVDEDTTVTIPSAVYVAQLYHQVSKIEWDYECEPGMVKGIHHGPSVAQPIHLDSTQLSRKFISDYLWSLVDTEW
UniProt P42229: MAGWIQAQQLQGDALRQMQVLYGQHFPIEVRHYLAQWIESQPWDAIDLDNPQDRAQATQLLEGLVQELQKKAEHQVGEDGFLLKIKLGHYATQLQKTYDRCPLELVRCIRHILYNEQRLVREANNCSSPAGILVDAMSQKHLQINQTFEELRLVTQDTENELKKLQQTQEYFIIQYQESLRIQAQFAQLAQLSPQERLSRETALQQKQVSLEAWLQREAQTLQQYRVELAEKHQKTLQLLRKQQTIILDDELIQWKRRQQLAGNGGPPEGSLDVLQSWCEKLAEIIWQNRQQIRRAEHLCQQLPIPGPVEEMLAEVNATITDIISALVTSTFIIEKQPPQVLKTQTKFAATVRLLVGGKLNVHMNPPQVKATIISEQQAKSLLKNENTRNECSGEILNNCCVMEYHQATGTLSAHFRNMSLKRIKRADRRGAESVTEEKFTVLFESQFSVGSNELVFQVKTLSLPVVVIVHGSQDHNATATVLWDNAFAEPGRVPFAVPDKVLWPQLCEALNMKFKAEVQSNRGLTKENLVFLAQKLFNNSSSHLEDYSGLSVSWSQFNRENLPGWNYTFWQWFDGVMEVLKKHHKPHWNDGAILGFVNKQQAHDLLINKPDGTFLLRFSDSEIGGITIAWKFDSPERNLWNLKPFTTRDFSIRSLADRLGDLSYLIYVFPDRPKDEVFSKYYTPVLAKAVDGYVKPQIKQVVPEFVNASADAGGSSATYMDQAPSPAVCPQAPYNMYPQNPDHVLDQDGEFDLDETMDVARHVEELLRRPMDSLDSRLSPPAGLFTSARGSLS
UniProt Q04837: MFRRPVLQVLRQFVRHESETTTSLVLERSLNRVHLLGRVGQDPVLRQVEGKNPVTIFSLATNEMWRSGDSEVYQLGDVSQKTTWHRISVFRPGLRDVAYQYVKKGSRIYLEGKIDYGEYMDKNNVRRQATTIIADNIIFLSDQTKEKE
UniProt Q9P0W8: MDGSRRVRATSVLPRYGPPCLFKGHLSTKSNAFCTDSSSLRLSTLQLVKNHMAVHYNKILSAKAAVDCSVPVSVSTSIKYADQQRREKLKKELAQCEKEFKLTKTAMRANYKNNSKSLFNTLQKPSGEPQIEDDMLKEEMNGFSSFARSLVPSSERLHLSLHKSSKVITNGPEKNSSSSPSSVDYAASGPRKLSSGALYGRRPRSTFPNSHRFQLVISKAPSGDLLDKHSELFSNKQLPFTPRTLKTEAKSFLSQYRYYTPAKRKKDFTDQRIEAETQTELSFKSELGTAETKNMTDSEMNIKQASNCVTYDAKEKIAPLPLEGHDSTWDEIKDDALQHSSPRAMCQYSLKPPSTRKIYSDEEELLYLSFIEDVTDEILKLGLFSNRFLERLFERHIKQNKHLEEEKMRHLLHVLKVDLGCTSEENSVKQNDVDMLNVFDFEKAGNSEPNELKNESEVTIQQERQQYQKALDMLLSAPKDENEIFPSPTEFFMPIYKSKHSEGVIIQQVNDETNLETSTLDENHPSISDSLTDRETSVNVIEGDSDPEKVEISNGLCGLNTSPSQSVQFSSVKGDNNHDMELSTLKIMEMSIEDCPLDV
UniProt O76061, whole entry, looked up: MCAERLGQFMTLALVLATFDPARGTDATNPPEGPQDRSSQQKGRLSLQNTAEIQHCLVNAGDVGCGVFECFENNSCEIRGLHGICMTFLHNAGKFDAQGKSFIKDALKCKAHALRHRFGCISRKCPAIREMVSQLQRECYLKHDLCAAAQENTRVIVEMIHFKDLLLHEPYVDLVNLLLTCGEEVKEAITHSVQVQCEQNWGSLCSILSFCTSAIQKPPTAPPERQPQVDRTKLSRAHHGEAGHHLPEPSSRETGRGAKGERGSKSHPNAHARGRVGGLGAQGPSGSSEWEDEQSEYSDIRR
UniProt Q9NSC7: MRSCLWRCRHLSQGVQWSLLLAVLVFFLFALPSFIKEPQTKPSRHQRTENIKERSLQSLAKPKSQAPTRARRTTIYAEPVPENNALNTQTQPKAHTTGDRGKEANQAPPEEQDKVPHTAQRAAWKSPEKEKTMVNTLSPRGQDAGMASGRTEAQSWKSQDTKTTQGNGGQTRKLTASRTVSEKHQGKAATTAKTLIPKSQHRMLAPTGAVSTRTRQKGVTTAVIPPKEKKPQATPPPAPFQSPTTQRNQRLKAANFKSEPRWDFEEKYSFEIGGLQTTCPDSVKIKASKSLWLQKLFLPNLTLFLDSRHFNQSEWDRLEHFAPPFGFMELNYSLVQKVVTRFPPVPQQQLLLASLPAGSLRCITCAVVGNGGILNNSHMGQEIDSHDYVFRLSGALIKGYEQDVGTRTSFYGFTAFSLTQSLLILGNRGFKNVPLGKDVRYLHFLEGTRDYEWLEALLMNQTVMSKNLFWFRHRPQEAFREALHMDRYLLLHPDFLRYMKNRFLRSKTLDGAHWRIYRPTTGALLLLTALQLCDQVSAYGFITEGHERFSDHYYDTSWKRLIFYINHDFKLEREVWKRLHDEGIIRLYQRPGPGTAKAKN
UniProt Q16384, whole entry, looked up: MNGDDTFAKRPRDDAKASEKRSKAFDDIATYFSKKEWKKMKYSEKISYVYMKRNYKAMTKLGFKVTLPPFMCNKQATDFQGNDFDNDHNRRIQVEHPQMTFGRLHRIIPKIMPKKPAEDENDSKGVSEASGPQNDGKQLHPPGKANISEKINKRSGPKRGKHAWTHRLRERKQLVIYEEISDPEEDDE
UniProt Q16842: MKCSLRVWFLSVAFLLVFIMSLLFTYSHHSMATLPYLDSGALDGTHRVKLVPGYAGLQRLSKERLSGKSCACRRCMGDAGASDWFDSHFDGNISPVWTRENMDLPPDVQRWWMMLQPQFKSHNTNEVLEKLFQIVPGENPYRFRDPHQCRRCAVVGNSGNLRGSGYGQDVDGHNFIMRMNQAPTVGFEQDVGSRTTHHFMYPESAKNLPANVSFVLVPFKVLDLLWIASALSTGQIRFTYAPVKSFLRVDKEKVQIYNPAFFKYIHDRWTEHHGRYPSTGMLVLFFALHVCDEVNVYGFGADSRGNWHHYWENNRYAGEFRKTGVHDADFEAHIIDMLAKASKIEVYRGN
UniProt Q9BWG4: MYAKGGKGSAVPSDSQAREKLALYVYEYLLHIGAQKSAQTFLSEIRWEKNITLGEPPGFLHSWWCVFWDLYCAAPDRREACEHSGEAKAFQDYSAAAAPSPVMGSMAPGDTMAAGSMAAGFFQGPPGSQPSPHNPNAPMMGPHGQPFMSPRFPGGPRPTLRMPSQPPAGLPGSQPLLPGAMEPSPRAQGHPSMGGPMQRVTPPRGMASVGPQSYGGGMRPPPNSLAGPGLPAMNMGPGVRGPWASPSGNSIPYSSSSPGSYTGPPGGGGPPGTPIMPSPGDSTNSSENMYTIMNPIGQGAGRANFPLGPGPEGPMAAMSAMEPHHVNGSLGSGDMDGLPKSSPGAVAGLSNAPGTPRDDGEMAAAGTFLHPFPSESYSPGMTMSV
UniProt Q9NUQ6: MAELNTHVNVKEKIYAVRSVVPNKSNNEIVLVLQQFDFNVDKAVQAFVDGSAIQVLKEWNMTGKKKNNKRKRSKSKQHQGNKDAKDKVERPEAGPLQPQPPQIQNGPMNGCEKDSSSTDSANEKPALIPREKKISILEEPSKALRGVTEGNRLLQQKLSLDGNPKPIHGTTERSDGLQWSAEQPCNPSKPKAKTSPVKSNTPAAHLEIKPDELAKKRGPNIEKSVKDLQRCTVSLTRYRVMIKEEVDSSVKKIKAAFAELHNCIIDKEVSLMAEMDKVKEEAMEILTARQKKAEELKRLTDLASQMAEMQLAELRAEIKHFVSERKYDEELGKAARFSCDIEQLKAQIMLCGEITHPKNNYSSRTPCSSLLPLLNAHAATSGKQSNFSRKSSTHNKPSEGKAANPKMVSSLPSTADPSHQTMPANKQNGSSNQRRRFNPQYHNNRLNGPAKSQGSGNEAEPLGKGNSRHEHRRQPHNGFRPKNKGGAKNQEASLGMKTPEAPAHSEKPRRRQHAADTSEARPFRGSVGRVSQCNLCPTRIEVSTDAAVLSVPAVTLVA
UniProt Q96EA4: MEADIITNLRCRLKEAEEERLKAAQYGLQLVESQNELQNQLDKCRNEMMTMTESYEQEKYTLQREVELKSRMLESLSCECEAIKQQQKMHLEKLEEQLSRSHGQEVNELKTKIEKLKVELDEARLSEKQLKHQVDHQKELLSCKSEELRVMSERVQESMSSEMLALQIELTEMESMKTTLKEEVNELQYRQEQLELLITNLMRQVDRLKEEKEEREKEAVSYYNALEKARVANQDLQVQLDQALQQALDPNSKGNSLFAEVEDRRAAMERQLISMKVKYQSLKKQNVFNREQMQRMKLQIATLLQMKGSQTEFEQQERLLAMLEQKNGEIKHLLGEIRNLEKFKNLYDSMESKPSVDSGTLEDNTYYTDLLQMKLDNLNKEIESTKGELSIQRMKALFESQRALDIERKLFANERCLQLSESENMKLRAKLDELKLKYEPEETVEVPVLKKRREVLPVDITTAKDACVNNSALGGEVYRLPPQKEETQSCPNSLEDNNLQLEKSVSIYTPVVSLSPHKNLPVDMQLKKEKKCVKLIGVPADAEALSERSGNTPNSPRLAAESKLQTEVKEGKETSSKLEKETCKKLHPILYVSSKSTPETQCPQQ
UniProt Q08945, whole entry, looked up: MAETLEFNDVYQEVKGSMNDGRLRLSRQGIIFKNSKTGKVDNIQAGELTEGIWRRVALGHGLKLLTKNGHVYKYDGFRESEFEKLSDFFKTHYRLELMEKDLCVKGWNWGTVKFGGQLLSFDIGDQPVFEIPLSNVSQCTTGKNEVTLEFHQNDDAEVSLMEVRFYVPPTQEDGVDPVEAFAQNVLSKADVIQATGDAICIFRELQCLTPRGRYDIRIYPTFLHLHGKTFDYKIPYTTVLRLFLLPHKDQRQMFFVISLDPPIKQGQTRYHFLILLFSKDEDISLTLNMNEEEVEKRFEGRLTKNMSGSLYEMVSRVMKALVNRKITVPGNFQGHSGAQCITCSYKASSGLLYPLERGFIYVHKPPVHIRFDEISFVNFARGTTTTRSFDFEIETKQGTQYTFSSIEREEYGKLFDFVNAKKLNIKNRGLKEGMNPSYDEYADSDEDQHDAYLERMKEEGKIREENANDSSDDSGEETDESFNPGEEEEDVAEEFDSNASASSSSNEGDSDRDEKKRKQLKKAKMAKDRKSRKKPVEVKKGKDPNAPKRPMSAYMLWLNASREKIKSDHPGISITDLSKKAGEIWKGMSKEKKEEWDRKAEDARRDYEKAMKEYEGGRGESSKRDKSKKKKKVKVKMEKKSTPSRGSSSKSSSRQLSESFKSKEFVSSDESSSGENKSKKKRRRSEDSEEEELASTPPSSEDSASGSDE
UniProt P81877: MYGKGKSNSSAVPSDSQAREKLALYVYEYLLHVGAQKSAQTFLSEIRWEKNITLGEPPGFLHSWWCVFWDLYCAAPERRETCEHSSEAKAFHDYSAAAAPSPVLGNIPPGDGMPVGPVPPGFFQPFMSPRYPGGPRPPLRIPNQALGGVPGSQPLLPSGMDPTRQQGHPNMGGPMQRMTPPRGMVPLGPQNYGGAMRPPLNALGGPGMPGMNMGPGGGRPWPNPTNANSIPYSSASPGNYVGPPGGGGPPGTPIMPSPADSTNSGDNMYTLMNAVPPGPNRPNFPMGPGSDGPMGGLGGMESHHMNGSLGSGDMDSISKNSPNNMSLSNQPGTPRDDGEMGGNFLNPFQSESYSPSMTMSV
UniProt Q9H8P0: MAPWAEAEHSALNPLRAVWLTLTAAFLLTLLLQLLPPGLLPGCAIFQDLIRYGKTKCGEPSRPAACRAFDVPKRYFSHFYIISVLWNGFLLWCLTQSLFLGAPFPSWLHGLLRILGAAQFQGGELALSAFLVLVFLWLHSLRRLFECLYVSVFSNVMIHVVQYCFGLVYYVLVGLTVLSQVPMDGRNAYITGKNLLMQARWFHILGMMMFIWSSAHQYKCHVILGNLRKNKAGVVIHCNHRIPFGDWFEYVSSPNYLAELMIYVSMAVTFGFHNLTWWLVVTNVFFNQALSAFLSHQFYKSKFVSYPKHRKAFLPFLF

[2] = compound: CCCS(=O)(=O)Nc1ccc(F)c(C(=O)c2c[nH]c3ncc(Cl)cc23)c1F
Outline: as §1

[3] = compound: CCN(CCCOc1ccc2c(Nc3cc(CC(=O)Nc4cccc(F)c4)[nH]n3)ncnc2c1)CCOP(=O)(O)O [barasertib]
Outline: as §1

[4] = compound: CC[C@@H]1C(=O)N(C)c2cnc(Nc3ccc(C(=O)NC4CCN(C)CC4)cc3OC)nc2N1C1CCCC1
Outline: as §1

[5] = compound: CC[C@@H]1C(=O)N(C)c2cnc(Nc3ccc(C(=O)N[C@H]4CC[C@H](N5CCN(CC6CC6)CC5)CC4)cc3OC)nc2N1C(C)C [volasertib]
Outline: as §1

[6] = compound: CCn1c(C(=O)N(C2CC2)C2CC2)cc2c3c(ncn3C)c(Nc3cc(C)n(C)n3)nc21
Outline: as §1

[7] = compound: CCn1cc(-c2ccnc3[nH]c(-c4cccc(CN(C)C)c4)cc23)c(-c2ccc(NC(=O)N(C)C)cc2)n1
Outline: as §1

[8] = compound: CN1CCC(CNc2ccc3ncc(-c4cccc(OC(F)(F)F)c4)n3n2)CC1
Outline: as §1

[9] = compound: CN1CCN(CCOc2cc(OC3CCOCC3)c3c(Nc4c(Cl)ccc5c4OCO5)ncnc3c2)CC1 [saracatinib]
Outline: as §1

[10] = compound: CN1CCN(c2nc(C3=C(c4c[nH]c5ccccc45)C(=O)NC3=O)c3ccccc3n2)CC1 [sotrastaurin]
Outline: as §1

[11] = compound: CN1CC[C@H](c2c(O)cc(O)c3c(=O)cc(-c4ccccc4Cl)oc23)[C@H](O)C1 [alvocidib]
Outline: as §1

[12] = compound: CN1CCc2c(c3ccccc3n2Cc2ccc(C(=O)NO)cc2)C1 [Tubastatin A]
Outline: as §1

[13] = compound: CNC(=O)C1=CC=CC=C1NC2=NC(=NC=C2Cl)NC3=C(C=C(C=C3)N4CCOCC4)OC
Outline: as §1

[14] = compound: CNC(=O)c1ccc(Nc2ncc(C(F)(F)F)c(NCc3nccnc3N(C)S(C)(=O)=O)n2)cc1 [defactinib]
Outline: as §1

[15] = compound: CNc1nc(-c2ccc3c(N)n[nH]c3c2)cc(N2C[C@@H](C(=O)NC3CCCCC3)CC[C@H]2C)n1
Outline: as §1

[16] = compound: COC(=O)N[C@@H](C)CNc1nccc(-c2cn(C(C)C)nc2-c2cc(Cl)cc(NS(C)(=O)=O)c2F)n1 [encorafenib]
Outline: as §1

[17] = compound: COC(=O)[C@H](CCSC)NC(=O)C1=C(C=C(C=C1)NC[C@H](CS)N)C2=CC=CC=C2
Outline: as §1

[18] = compound: COc1cc(Nc2ncc3c(n2)-c2ccc(Cl)cc2C(c2c(F)cccc2OC)=NC3)ccc1C(=O)O [alisertib]
Outline: as §1

[19] = compound: COc1cc2nc(-c3cc(F)ccc3O)nc(N[C@@H]3CNC[C@H]3C(C)(C)O)c2cc1OC
Outline: as §1

[20] = compound: COc1cc2ncnc(Nc3ccc(F)c(Cl)c3)c2cc1OCCCN1CCOCC1 [gefitinib]
Outline: as §1

Measured: log2 fold change

SPC24 (UniProt Q8NBT2)
inactive: [1] 0.006 | [2] 0.024 | [3] 0.027 | [4] -0.017 | [5] -0.008 | [6] -0.008 | [7] -0.074 | [8] -0.027 | [9] 0.015 | [10] -0.021 | [11] 0.033 | [12] 0.023 | [13] 0.011 | [14] 0.016 | [15] 0.004 | [16] 0.016 | [17] -0.025 | [18] -0.04 | [19] 0.017 | [20] 0.01

STAT5A (UniProt P42229)
inactive: [1] 0 | [2] 0.024 | [3] 0.042 | [4] -0.027 | [5] -0.044 | [6] -0.003 | [7] 0.044 | [8] -0.047 | [9] 0.021 | [10] -0.002 | [11] 0.002 | [12] -0.064 | [13] 0.023 | [14] 0.001 | [15] 0.038 | [16] 0 | [17] 0.024 | [18] 0.006 | [19] 0.021 | [20] -0.003

SSBP1 (UniProt Q04837)
inactive: [1] 0.032 | [2] -0.003 | [3] -0.027 | [4] 0.028 | [5] 0.029 | [6] -0.015 | [7] -0.044 | [8] 0.058 | [9] 0.004 | [10] 0.02 | [11] -0.011 | [12] 0.041 | [13] -0.011 | [14] 0.005 | [15] -0.004 | [16] -0.009 | [17] -0.001 | [18] 0.008 | [19] 0.018 | [20] -0.007

SSBP4 (UniProt U3KPY3)
inactive: [1] 0.076 | [3] -0.078 | [7] 0.064 | [8] 0.08 | [11] -0.103 | [14] -0.127 | [18] 0.122 | [20] -0.294

SPATA7 (UniProt Q9P0W8)
inactive: [1] 0.362 | [2] -0.016 | [3] 0.122 | [4] 0.288 | [5] 0.059 | [7] 0.6 | [8] 0.001 | [11] -0.406 | [13] 0.067 | [14] -0.056 | [16] -0.088 | [17] -0.021 | [18] -0.045 | [19] 0.079 | [20] 0.026

STC2 (UniProt O76061)
inactive: [1] 0.055 | [2] -0.247 | [4] 0.019 | [5] -0.057 | [6] 0.094 | [7] 0.089 | [8] -0.02 | [9] -0.092 | [10] -0.038 | [11] 0.081 | [12] -0.014 | [13] -0.094 | [14] 0.177 | [15] -0.056 | [16] -0.142 | [17] 0.055 | [18] 0.069 | [19] 0.106 | [20] 0.044

ST6GALNAC1 (UniProt Q9NSC7)
inactive: [1] -0.216 | [3] 0.049 | [4] 0.098 | [6] 0.029 | [7] -0.065 | [8] 0.033 | [9] -0.063 | [10] -0.04 | [11] 0.02 | [12] -0.038 | [13] -0.113 | [14] 0.117 | [15] 0.011 | [16] -0.023 | [17] 0.017 | [18] -0.029 | [20] 0.063

SSX1 (UniProt Q16384)
inactive: [1] -0.298 | [4] -0.057 | [6] -0.096 | [7] 0.387 | [8] -0.247 | [9] -0.191 | [10] -0.044 | [11] -0.065 | [12] -0.09 | [13] 0.278 | [14] 0.061 | [15] -0.112 | [16] 0.047 | [17] -0.016

ST3GAL2 (UniProt Q16842)
inactive: [1] 0.067 | [2] 0.017 | [3] -0.002 | [4] 0.003 | [5] 0.012 | [6] -0.01 | [7] -0.081 | [8] 0.014 | [9] 0.024 | [10] 0.056 | [11] -0.086 | [12] 0.015 | [13] -0.063 | [14] 0.081 | [15] 0.063 | [16] 0.049 | [17] -0.08 | [19] -0.018

STAM (UniProt A6NMU3)
inactive: [1] 0.126 | [2] -0.012 | [4] 0.036 | [5] -0.006 | [6] -0.106 | [9] -0.08 | [10] -0.057 | [12] 0.032 | [13] 0.09 | [14] -0.017 | [15] 0.149 | [16] -0.107 | [17] 0.049 | [19] 0.088

SPATA33 isoform 2 (UniProt Q96N06)
inactive: [1] 0.082 | [2] -0.255 | [3] 0.015 | [4] 0.022 | [5] -0.285 | [6] 0.055 | [7] -0.279 | [8] 0.126 | [9] 0.163 | [11] 0 | [12] 0.014 | [14] 0.171 | [15] 0.118 | [16] -0.021 | [17] -0.041 | [18] 0.097 | [19] 0.061 | [20] 0.024

SSBP4 (UniProt Q9BWG4)
inactive: [1] 0.174 | [2] -0.047 | [3] 0.125 | [4] 0.051 | [5] 0.005 | [7] -0.002 | [8] -0.043 | [10] 0.023 | [11] -0.063 | [14] 0.003 | [16] 0.161 | [17] -0.075 | [18] 0.032 | [19] 0.082 | [20] -0.049

SPATS2L isoform 2 (UniProt Q9NUQ6)
inactive: [1] 0.036 | [2] -0.097 | [3] 0.036 | [4] 0.062 | [5] 0.064 | [6] -0.008 | [7] 0.255 | [8] -0.192 | [10] 0.043 | [11] 0.146 | [12] -0.039 | [13] -0.015 | [14] 0.075 | [16] 0.075 | [17] -0.017 | [18] -0.007 | [19] -0.018 | [20] 0.096

SPDL1 (UniProt Q96EA4)
inactive: [1] 0.018 | [2] 0.021 | [3] -0.019 | [4] 0.024 | [5] -0.031 | [6] 0.022 | [7] -0.088 | [8] 0.048 | [9] -0.002 | [10] -0.031 | [11] -0.036 | [12] -0.033 | [13] 0.032 | [14] 0.036 | [15] -0.016 | [16] -0.005 | [17] 0.011 | [18] 0.005 | [19] -0.01 | [20] -0.019

SSRP1 (UniProt Q08945)
inactive: [1] -0.008 | [2] 0.003 | [3] 0.019 | [4] -0.036 | [5] -0.017 | [6] 0.004 | [7] 0.007 | [8] -0.015 | [9] 0.026 | [10] 0.008 | [11] 0.011 | [12] -0.023 | [13] 0.009 | [14] -0.004 | [15] -0.014 | [16] -0.002 | [17] -0.001 | [18] 0.018 | [19] -0.019 | [20] -0.015

SSBP2 (UniProt P81877)
inactive: [1] 0 | [4] 0.141 | [6] -0.343 | [7] 0.122 | [8] -0.204 | [9] -0.017 | [10] 0.143 | [11] -0.116 | [12] 0.138 | [13] 0.06 | [14] -0.087 | [15] 0.233 | [16] -0.253 | [17] -0.166

3 consecutive records already listed, quoted:
SSBP4 (UniProt Q9BWG4)
inactive: [1] 0.174 | [2] -0.047 | [3] 0.125 | [4] 0.051 | [5] 0.005 | [7] -0.002 | [8] -0.043 | [10] 0.023 | [11] -0.063 | [14] 0.003 | [16] 0.161 | [17] -0.075 | [18] 0.032 | [19] 0.082 | [20] -0.049

SPATS2L isoform 2 (UniProt Q9NUQ6)
inactive: [1] 0.036 | [2] -0.097 | [3] 0.036 | [4] 0.062 | [5] 0.064 | [6] -0.008 | [7] 0.255 | [8] -0.192 | [10] 0.043 | [11] 0.146 | [12] -0.039 | [13] -0.015 | [14] 0.075 | [16] 0.075 | [17] -0.017 | [18] -0.007 | [19] -0.018 | [20] 0.096

SPDL1 (UniProt Q96EA4)
inactive: [1] 0.018 | [2] 0.021 | [3] -0.019 | [4] 0.024 | [5] -0.031 | [6] 0.022 | [7] -0.088 | [8] 0.048 | [9] -0.002 | [10] -0.031 | [11] -0.036 | [12] -0.033 | [13] 0.032 | [14] 0.036 | [15] -0.016 | [16] -0.005 | [17] 0.011 | [18] 0.005 | [19] -0.01 | [20] -0.019

Remaining list, next part:

SRGAP2 (UniProt O75044)
inactive: [1] 0.032 | [2] 0.031 | [3] -0.007 | [4] 0.032 | [5] -0.019 | [6] 0.023 | [7] 0.003 | [8] 0.022 | [9] -0.011 | [10] -0.013 | [11] -0.012 | [12] -0.071 | [13] -0.017 | [14] -0.014 | [15] 0.028 | [16] -0.023 | [17] 0.079 | [18] -0.001 | [19] -0.003 | [20] -0.018

SRD5A3 (UniProt Q9H8P0)
inactive: [1] -0.034 | [2] 0.011 | [3] -0.018 | [4] -0.392 | [5] -0.117 | [6] 0.165 | [9] 0.036 | [10] -0.087 | [12] -0.245 | [13] -0.115 | [14] -0.043 | [15] -0.208 | [16] 0.041 | [17] -0.506 | [18] 0.209 | [19] -0.077 | [20] -0.098

Source: the supplement of paper PMC10849652
